Results are given in words; binding and its absence hold for the method and conditions named. Binding seen in cells or lysates may run through a third protein. Here binding means that the protein was enriched with, or labelled near, the bait; the list need not be complete. Sequences can lack the tags named with a protein.
Target: T1, WAPL with FLAG/streptavidin binding peptide dual epitope tag, from the gene-edited endogenous allele (human (endogenous in HCT116)) (UniProt Q7Z5K2)
T1 sequence: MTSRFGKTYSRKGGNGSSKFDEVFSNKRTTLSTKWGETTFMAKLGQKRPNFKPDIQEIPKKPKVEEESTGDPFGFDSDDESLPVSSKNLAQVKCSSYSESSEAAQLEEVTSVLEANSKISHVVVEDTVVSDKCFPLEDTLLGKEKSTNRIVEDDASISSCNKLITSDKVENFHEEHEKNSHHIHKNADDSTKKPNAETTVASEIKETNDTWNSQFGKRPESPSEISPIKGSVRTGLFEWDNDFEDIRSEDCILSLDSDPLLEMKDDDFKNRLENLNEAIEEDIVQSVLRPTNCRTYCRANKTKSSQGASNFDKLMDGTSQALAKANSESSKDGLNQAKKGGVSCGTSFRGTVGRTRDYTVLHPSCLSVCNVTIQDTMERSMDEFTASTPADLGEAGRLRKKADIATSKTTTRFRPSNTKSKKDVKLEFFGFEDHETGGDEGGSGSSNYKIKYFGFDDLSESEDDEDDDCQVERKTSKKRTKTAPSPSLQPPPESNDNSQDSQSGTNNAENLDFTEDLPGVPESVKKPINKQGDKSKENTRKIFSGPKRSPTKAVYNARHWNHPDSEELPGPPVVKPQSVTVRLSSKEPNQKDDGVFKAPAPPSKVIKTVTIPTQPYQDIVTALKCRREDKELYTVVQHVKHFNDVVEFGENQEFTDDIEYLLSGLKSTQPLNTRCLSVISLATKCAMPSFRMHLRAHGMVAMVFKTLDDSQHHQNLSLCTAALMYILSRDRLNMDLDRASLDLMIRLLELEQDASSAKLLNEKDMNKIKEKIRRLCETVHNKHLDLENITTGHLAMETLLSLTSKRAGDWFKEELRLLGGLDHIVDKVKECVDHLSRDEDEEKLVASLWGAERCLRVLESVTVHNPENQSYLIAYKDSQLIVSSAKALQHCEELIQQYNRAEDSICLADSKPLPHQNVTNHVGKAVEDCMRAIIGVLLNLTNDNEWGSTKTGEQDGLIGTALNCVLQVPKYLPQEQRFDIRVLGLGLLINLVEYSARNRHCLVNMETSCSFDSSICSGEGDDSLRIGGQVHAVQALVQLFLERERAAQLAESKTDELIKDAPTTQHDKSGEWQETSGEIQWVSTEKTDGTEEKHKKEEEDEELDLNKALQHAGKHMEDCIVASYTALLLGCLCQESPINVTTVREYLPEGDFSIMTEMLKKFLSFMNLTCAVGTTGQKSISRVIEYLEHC
Assay: affinity purification with mass spectrometry; dual-affinity purification (FLAG, then streptavidin) of dual epitope-tagged endogenous cohesin subunits from HCT116 nuclear extracts, mass spectrometry; primary data in ref. 13

binding: binds
B1: Ubiquitin-Specific Protease 13 (USP13), endogenous (enzyme, UniProt Q92995 1-863)
chain: MQRRGALFGMPGGSGGRKMAAGDIGELLVPHMPTIRVPRSGDRVYKNECAFSYDSPNSEGGLYVCMNTFLAFGREHVERHFRKTGQSVYMHLKRHVREKVRGASGGALPKRRNSKIFLDLDTDDDLNSDDYEYEDEAKLVIFPDHYEIALPNIEELPALVTIACDAVLSSKSPYRKQDPDTWENELPVSKYANNLTQLDNGVRIPPSGWKCARCDLRENLWLNLTDGSVLCGKWFFDSSGGNGHALEHYRDMGYPLAVKLGTITPDGADVYSFQEEEPVLDPHLAKHLAHFGIDMLHMHGTENGLQDNDIKLRVSEWEVIQESGTKLKPMYGPGYTGLKNLGNSCYLSSVMQAIFSIPEFQRAYVGNLPRIFDYSPLDPTQDFNTQMTKLGHGLLSGQYSKPPVKSELIEQVMKEEHKPQQNGISPRMFKAFVSKSHPEFSSNRQQDAQEFFLHLVNLVERNRIGSENPSDVFRFLVEERIQCCQTRKVRYTERVDYLMQLPVAMEAATNKDELIAYELTRREAEANRRPLPELVRAKIPFSACLQAFSEPENVDDFWSSALQAKSAGVKTSRFASFPEYLVVQIKKFTFGLDWVPKKFDVSIDMPDLLDINHLRARGLQPGEEELPDISPPIVIPDDSKDRLMNQLIDPSDIDESSVMQLAEMGFPLEACRKAVYFTGNMGAEVAFNWIIVHMEEPDFAEPLTMPGYGGAASAGASVFGASGLDNQPPEEIVAIITSMGFQRNQAIQALRATNNNLERALDWIFSHPEFEEDSDFVIEMENNANANIISEAKPEGPRVKDGSGTYELFAFISHMGTSTMSGHYICHIKKEGRWVIYNDHKVCASERPPKDLGYMYFYRRIPS

Source: PMC7948425
